{"source": "PubChem BioAssay AID1224828 (NIAID, 2016)", "purpose": "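Knock-downs that increase or decrease LPS-induced p65 nuclear translocation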 (primary screen)", "system": "mouse RAW264.7 G9 macrophage reporter cells (GFP-p65, Tnf promoter-mCherry)", "reagent": "siRNA pool against mouse genes, 100 nM", "timing": "2 days siRNA transfection, then 40 min LPS before fixation", "challenge": "LPS (Salmonella minnesota R595) at 10 ng/ml", "measured": "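Imaged p65 nuclear translocation ratio, normalised to the plate median, converted to robust z-scores and averaged across two replicates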", "scale": "p65 translocation robust z-score: higher = more nuclear NF-kappaB p65 after LPS than the plate median; nuclear/cytoplasmic p65 ratio: higher = more nuclear NF-kappaB p65", "active means": "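Called active when z exceeds 3.3 or falls under -1.56 (median of Tlr4 controls), giving activity score of at least 50; no calls for control wells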", "meaning of the calls": "active = hit (p65 shift raised or lowered); inactive = no clear change", "note": "The deposit covers about 17,000 reagents; below is a random part of them. Of all reagents, 762 (4.5%) got an active call. 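Active calls include both raised and lowered p65 entry, mostly lowered; wells with fewer than 50 cells lack a z-score.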 Raw values vary from plate to plate and are shown uncorrected. A number with no mark means an inactive call."}
{"gene": "Tph2", "PubChem SID": "SID315477993", "nuclear/cytoplasmic p65 ratio, rep 1": 1.24, "nuclear/cytoplasmic p65 ratio, rep 2": 1.15, "low cell count flag": "fewer than 50 cells per well; well left out of scoring"}
{"gene": "Hamp", "PubChem SID": "SID315475898", "p65 translocation robust z-score": 0.27, "nuclear/cytoplasmic p65 ratio, rep 1": 1.73, "nuclear/cytoplasmic p65 ratio, rep 2": 1.54, "low cell count flag": "enough cells to score"}
{"gene": "H2-M1", "PubChem SID": "SID315478368", "p65 translocation robust z-score": 1.57, "nuclear/cytoplasmic p65 ratio, rep 1": 1.35, "nuclear/cytoplasmic p65 ratio, rep 2": 1.78, "low cell count flag": "enough cells to score"}
{"gene": "Trdmt1", "PubChem SID": "SID315466360", "p65 translocation robust z-score": 0.69, "nuclear/cytoplasmic p65 ratio, rep 1": 1.59, "nuclear/cytoplasmic p65 ratio, rep 2": 1.45, "low cell count flag": "enough cells to score"}
{"gene": "Dgcr2", "PubChem SID": "SID315466319", "p65 translocation robust z-score": 0.35, "nuclear/cytoplasmic p65 ratio, rep 1": 1.6, "nuclear/cytoplasmic p65 ratio, rep 2": 1.36, "low cell count flag": "enough cells to score"}
{"gene": "Nop2", "PubChem SID": "SID315476874", "p65 translocation robust z-score": 0.5, "nuclear/cytoplasmic p65 ratio, rep 1": 1.56, "nuclear/cytoplasmic p65 ratio, rep 2": 1.46, "low cell count flag": "enough cells to score"}
{"gene": "Atg2b", "PubChem SID": "SID315475339", "p65 translocation robust z-score": 1.72, "nuclear/cytoplasmic p65 ratio, rep 1": 1.73, "nuclear/cytoplasmic p65 ratio, rep 2": 1.59, "low cell count flag": "enough cells to score"}
{"gene": "Atg2b", "PubChem SID": "SID315481075", "p65 translocation robust z-score": -0.12, "nuclear/cytoplasmic p65 ratio, rep 1": 1.57, "nuclear/cytoplasmic p65 ratio, rep 2": 1.77, "low cell count flag": "enough cells to score"}
{"gene": "Supt5", "PubChem SID": "SID315469529", "p65 translocation robust z-score": -0.18, "nuclear/cytoplasmic p65 ratio, rep 1": 1.5, "nuclear/cytoplasmic p65 ratio, rep 2": 1.45, "low cell count flag": "enough cells to score"}
{"gene": "Ggcx", "PubChem SID": "SID315471452", "p65 translocation robust z-score": 0.17, "nuclear/cytoplasmic p65 ratio, rep 1": 1.48, "nuclear/cytoplasmic p65 ratio, rep 2": 1.37, "low cell count flag": "enough cells to score"}
{"gene": "Nt5c3b", "PubChem SID": "SID315473413", "p65 translocation robust z-score": 1.83, "nuclear/cytoplasmic p65 ratio, rep 1": 1.68, "nuclear/cytoplasmic p65 ratio, rep 2": 1.78, "low cell count flag": "enough cells to score"}
{"gene": "Rhag", "PubChem SID": "SID315468972", "nuclear/cytoplasmic p65 ratio, rep 1": 1.34, "nuclear/cytoplasmic p65 ratio, rep 2": 1.35, "low cell count flag": "fewer than 50 cells per well; well left out of scoring"}
{"gene": "Adam5", "PubChem SID": "SID315465294", "p65 translocation robust z-score": -0.05, "nuclear/cytoplasmic p65 ratio, rep 1": 1.53, "nuclear/cytoplasmic p65 ratio, rep 2": 1.74, "low cell count flag": "enough cells to score"}
{"gene": "H2bc27", "PubChem SID": "SID315475561", "p65 translocation robust z-score": -1.47, "nuclear/cytoplasmic p65 ratio, rep 1": 1.58, "nuclear/cytoplasmic p65 ratio, rep 2": 1.35, "low cell count flag": "enough cells to score"}
{"gene": "Selenbp1", "PubChem SID": "SID315469166", "p65 translocation robust z-score": 0.74, "nuclear/cytoplasmic p65 ratio, rep 1": 1.6, "nuclear/cytoplasmic p65 ratio, rep 2": 1.71, "low cell count flag": "enough cells to score"}
{"gene": "Cldn9", "PubChem SID": "SID315471707", "p65 translocation robust z-score": 0.3, "nuclear/cytoplasmic p65 ratio, rep 1": 1.67, "nuclear/cytoplasmic p65 ratio, rep 2": 1.8, "low cell count flag": "enough cells to score"}
{"gene": "Ifngr1", "PubChem SID": "SID315467398", "p65 translocation robust z-score": 0.65, "nuclear/cytoplasmic p65 ratio, rep 1": 1.44, "nuclear/cytoplasmic p65 ratio, rep 2": 1.53, "low cell count flag": "enough cells to score"}
{"gene": "Ptpn7", "PubChem SID": "SID315481237", "p65 translocation robust z-score": 0.25, "nuclear/cytoplasmic p65 ratio, rep 1": 1.71, "nuclear/cytoplasmic p65 ratio, rep 2": 1.59, "low cell count flag": "enough cells to score"}
{"gene": "Mex3d", "PubChem SID": "SID315479345", "p65 translocation robust z-score": -0.98, "nuclear/cytoplasmic p65 ratio, rep 1": 1.24, "nuclear/cytoplasmic p65 ratio, rep 2": 1.15, "low cell count flag": "enough cells to score"}
{"gene": "Lgi2", "PubChem SID": "SID315479879", "p65 translocation robust z-score": 0.6, "nuclear/cytoplasmic p65 ratio, rep 1": 1.87, "nuclear/cytoplasmic p65 ratio, rep 2": 1.58, "low cell count flag": "enough cells to score"}
{"gene": "Adamts7", "PubChem SID": "SID315476708", "p65 translocation robust z-score": -1.34, "nuclear/cytoplasmic p65 ratio, rep 1": 1.41, "nuclear/cytoplasmic p65 ratio, rep 2": 1.42, "low cell count flag": "enough cells to score"}
